The data set in a line: general procedure: Fmoc solid-phase peptide synthesis; 2-Chlorotrityl-resin. To be noted: conjugation step.

In turn, “{5-[({5-[2-(2-Acetylamino-propionylamino)-3-phenyl-propionylamino]-5-carbamoyl-pentylcarbamoyl}-methyl)-carbamoyl]-5-[5-(4-formyl-3-hydroxy-phenoxy)-pentanoylamino]-pentyl}-trimethyl-ammonium 22” registered a conjugation yield of 28%.

Values taken from patent publication US20080213297 (published 2008).
